PubChem BioAssay AID1159584 | Peter MacCallum Cancer Centre, 2016

Assay: 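Genes that CDH1-null MCF10A cells selectively depend on to survive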 (primary screen)
Cells: human MCF10A breast epithelial cells, parental and CDH1-null
Reagents: siRNA against human genes
Measured: 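Cell viability by CellTiter-Glo ATP luminescence, each line scaled to the mean of mock wells across plates, then CDH1-null over parental ratio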
Direction: CDH1-null / parental viability ratio: higher = CDH1-null cells survive relatively better than parental; CDH1-null viability vs mock: higher = more viable CDH1-null cells; parental viability vs mock: higher = more viable parental cells
Shown is a random part of about 18,000 reagents. The numbers tell different reagents against one gene apart. Not given: the amount of reagent, the time to read-out.

| gene | reagent | CDH1-null / parental viability ratio | CDH1-null viability vs mock (fraction of mock) | parental viability vs mock (fraction of mock) |
| --- | --- | --- | --- | --- |
| PIK3R1 | 1 | 0.89 | 0.99 | 1.11 |
| PTPN9 | 1 | 1.35 | 1.11 | 0.82 |
| NQO1 | 1 | 1.05 | 1.05 | 1 |
| CEACAM19 | 1 | 1.02 | 0.98 | 0.96 |
| H2AZ1 | 1 | 0.94 | 0.81 | 0.86 |
| GON7 | 1 | 1.1 | 0.97 | 0.88 |
| KLHDC8B | 1 | 0.92 | 0.6 | 0.65 |
| DNAH6 | 1 | 1.14 | 0.82 | 0.72 |
| TRIM6 | 1 | 0.86 | 0.69 | 0.8 |
| TOP6BL | 1 | 1.12 | 0.92 | 0.82 |
| PDK1 | 1 | 1.07 | 0.94 | 0.88 |
| SPTA1 | 1 | 0.98 | 0.9 | 0.92 |
| WDHD1 | 1 | 0.85 | 0.33 | 0.39 |
| IFT57 | 1 | 1.05 | 0.84 | 0.8 |
| SDF4 | 1 | 1.08 | 0.98 | 0.91 |
| CYCS | 1 | 0.75 | 0.57 | 0.76 |
| KCNQ3 | 1 | 1.26 | 1.26 | 1 |
| TOMM20 | 1 | 1.28 | 0.97 | 0.76 |
| LAMA5 | 1 | 0.99 | 1.05 | 1.06 |
| DPH1 | 1 | 1.04 | 0.86 | 0.83 |
| SEMA4D | 1 | 0.9 | 0.83 | 0.92 |
| SEMA4D | 2 | 0.86 | 0.57 | 0.66 |
| CCDC12 | 1 | 1.22 | 0.66 | 0.54 |
| ZSCAN5A | 1 | 1.06 | 0.66 | 0.62 |
| IL4I1 | 1 | 1.01 | 0.97 | 0.96 |
| PSRC1 | 1 | 1.04 | 0.81 | 0.78 |
| FEM1B | 1 | 0.97 | 1.04 | 1.07 |
| MSL3 | 1 | 0.77 | 0.6 | 0.78 |
| APOC2 | 1 | 1.23 | 0.48 | 0.39 |
| CETN2 | 1 | 1.34 | 1.11 | 0.83 |
| VRK3 | 1 | 1.08 | 0.98 | 0.91 |
| HAP1 | 1 | 1.25 | 0.95 | 0.76 |
| RERGL | 1 | 0.85 | 0.68 | 0.8 |
| CEP70 | 1 | 1.04 | 0.77 | 0.74 |
| GPR179 | 1 | 0.89 | 0.88 | 0.99 |
| RTP2 | 1 | 0.92 | 0.68 | 0.74 |
| PIGK | 1 | 1.45 | 0.64 | 0.44 |
| SMIM8 | 1 | 1.04 | 0.58 | 0.56 |
| CCDC140 | 1 | 0.94 | 0.64 | 0.68 |
| AHR | 1 | 1.38 | 1.55 | 1.12 |
| AKR1B1 | 1 | 0.79 | 0.52 | 0.66 |
| SUN1 | 1 | 0.66 | 0.58 | 0.88 |
| P4HA1 | 1 | 1 | 0.78 | 0.78 |
| PRR11 | 1 | 0.94 | 0.6 | 0.64 |
| PARVG | 1 | 1.3 | 0.78 | 0.6 |
| FXYD7 | 1 | 1.31 | 1.38 | 1.05 |
| OR2M3 | 1 | 0.92 | 0.68 | 0.74 |
| DCAF4L2 | 1 | 0.87 | 0.99 | 1.14 |
| ATIC | 1 | 0.92 | 0.74 | 0.8 |
| HBG2 | 1 | 0.9 | 0.78 | 0.87 |
| DSC3 | 1 | 1.08 | 0.54 | 0.5 |
| PSMD11 | 1 | 1.11 | 0.6 | 0.54 |
| PRR13 | 1 | 0.81 | 0.62 | 0.77 |
| FOLR1 | 1 | 1.03 | 0.91 | 0.88 |
| SUCLG1 | 1 | 0.95 | 0.79 | 0.83 |
| OR51B4 | 1 | 1.2 | 0.96 | 0.8 |
| CD5L | 1 | 0.98 | 0.84 | 0.86 |
| HK2 | 1 | 1.01 | 1.09 | 1.08 |
| NCOA2 | 1 | 1 | 0.9 | 0.9 |
| ADORA2B | 1 | 0.91 | 0.88 | 0.97 |
| RAD23A | 1 | 0.8 | 0.77 | 0.96 |
| ZNF549 | 1 | 1.14 | 0.97 | 0.85 |
| LGALS9B | 1 | 1.37 | 0.78 | 0.57 |
| SPANXD | 1 | 1.72 | 0.31 | 0.18 |
| SPANXD | 2 | 1.65 | 0.33 | 0.2 |
| SERPINF1 | 1 | 1.31 | 0.72 | 0.55 |
| DNAJC30 | 1 | 1 | 0.8 | 0.8 |
| PRPS1 | 1 | 1.1 | 0.9 | 0.82 |
